# Assay results: patent publication US11452781B2, “Method of preventing and treating type 1 diabetes, allograft rejection and lung fibrosis (by targeting the ATP/P2X7R axis)” (CHILDREN'S MEDICAL CENTER CORPORATION, priority 2013, dated 2022)
# At least one compound was matched to its structure with a doubt left.
# Columns and labels:
# NOD mice = assay: Diabetes onset in NOD mice (prevention); type: in vivo, mouse; details: 10-week-old NOD mice (late prevention)
# Procedure: Untreated NOD mice invariably developed diabetes by 15-20 weeks of age (FIGS. 5A-5E). […] Rapamycin (0.1 mg/kg for 10 days) treatment was again synergistic with oATP treatment, inducing a further delay in the onset of diabetes (FIG. 7) with 70% of mice protected from diabetes at 25 weeks, while rapamycin treatment alone was ineffective in delaying diabetes in NOD mice (FIG. 7). This group of experiments confirmed that the ATP/P2X7R axis is indeed relevant to allo- and autoimmune responses in vivo and that P2X7R targeting can be viewed as a novel strategy to curb both responses.
# Consequently, NOD mice were treated with oATP.
# [1] = test system: P2X7R2/2 C57BL6 mice transplanted with BALB/c islets; assay: Allogeneic islet transplantation into P2X7R-/- C57BL6 recipients; details: rapamycin-treated vs untreated P2X7R2/2, day 14
smiles,measurement,setting,value
CO[C@H]1C[C@@H]2CC[C@@H](C)[C@@](O)(O2)C(=O)C(=O)N2CCCC[C@H]2C(=O)O[C@H]([C@H](C)C[C@@H]2CC[C@@H](O)[C@H](OC)C2)CC(=O)[C@H](C)/C=C(\C)[C@@H](O)[C@@H](OC)C(=O)[C@H](C)C[C@H](C)/C=C/C=C/C=C/1C [Rapamycin],delay of diabetes onset,NOD mice,ineffective
same,islet graft structure and immune cell infiltration,[1],better protection
